Results from PMC5024325.
These are yes or no findings as the source states them, for the method shown. In cells and extracts the contact can be indirect. Some binding calls cover weakened binding; strength is not graded here. For some assays here: Sequences can lack the tags named with a protein.

Chains of the proteins cited; added tags and fusions are not shown.
UniProt Q7Z434: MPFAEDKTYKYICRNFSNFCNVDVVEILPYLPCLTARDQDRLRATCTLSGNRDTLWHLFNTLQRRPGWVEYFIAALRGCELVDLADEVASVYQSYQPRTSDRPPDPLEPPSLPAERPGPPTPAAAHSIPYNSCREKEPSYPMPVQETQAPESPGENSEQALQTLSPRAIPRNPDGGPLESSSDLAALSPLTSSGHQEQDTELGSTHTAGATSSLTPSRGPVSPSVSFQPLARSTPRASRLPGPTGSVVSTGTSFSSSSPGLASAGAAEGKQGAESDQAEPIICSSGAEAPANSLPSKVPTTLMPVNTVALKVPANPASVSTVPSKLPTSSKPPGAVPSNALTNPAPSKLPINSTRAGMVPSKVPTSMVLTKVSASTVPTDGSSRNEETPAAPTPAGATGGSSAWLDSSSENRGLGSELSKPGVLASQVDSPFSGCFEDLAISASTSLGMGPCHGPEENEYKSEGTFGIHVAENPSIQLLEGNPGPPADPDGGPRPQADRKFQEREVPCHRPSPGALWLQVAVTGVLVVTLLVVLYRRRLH
UniProt Q9Y6K9: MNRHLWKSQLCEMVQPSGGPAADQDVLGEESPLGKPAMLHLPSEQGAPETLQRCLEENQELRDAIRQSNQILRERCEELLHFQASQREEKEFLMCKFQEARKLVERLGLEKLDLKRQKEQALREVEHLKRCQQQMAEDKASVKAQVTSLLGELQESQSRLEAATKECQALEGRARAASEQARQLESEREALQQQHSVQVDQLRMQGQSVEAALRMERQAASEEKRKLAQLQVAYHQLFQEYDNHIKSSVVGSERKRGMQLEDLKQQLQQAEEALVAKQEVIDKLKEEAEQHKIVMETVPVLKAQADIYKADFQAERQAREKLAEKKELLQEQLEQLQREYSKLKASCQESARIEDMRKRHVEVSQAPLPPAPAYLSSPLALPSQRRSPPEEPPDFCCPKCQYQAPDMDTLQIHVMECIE

T1: Endogenous methylcrotonoyl-CoA carboxylase 1 (MCCC1) (human (endogenous in A549)) (UniProt Q96RQ3)
T1 sequence: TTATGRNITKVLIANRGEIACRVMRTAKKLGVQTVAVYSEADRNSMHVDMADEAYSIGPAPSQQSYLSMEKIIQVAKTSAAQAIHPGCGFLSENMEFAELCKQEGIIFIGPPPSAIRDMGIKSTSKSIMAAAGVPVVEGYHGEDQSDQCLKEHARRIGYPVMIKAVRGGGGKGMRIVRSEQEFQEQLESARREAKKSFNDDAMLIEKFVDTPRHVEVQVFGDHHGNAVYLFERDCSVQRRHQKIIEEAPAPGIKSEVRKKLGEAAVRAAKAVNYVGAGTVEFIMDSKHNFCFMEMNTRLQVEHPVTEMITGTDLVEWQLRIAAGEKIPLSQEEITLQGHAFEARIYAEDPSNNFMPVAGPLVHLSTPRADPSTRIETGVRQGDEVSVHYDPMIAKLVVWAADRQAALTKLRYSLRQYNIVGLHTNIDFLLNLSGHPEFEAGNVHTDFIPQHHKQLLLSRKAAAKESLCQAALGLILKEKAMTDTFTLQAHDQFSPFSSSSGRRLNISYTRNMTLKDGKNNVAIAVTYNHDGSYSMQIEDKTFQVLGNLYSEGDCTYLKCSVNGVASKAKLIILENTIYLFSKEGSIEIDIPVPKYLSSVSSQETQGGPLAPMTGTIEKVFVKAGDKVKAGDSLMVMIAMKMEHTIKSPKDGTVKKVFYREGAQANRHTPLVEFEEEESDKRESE

T2: HA-tagged methylcrotonoyl-CoA carboxylase 1 (MCCC1) (human) (UniProt Q96RQ3)
T2 sequence: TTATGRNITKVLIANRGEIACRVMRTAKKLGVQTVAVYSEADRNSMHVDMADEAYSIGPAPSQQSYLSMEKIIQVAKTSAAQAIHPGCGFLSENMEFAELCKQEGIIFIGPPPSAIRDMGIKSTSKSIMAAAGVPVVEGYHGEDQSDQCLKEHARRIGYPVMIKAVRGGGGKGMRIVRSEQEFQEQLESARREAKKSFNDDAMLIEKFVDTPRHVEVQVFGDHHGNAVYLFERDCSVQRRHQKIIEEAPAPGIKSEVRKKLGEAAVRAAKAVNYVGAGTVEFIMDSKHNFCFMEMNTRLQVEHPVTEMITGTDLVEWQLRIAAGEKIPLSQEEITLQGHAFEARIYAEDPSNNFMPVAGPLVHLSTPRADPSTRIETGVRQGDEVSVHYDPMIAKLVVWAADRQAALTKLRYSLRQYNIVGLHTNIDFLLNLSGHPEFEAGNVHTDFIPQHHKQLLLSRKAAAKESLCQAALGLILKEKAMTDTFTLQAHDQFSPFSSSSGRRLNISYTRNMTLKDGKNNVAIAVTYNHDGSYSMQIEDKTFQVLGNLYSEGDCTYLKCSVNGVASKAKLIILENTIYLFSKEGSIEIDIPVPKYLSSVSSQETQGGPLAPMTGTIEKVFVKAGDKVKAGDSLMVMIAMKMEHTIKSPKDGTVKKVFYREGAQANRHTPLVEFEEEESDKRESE


Assays:
[1] = target: T1, Endogenous methylcrotonoyl-CoA carboxylase 1 (MCCC1) (human (endogenous in A549)); assay: co-IP; endogenous proteins; A549 cells infected with SeV for 12 h or left uninfected; whole-cell lysate; precipitation with anti-MCCC1 or anti-TRAF6 antibody or control IgG on protein G PLUS-Agarose; immunoblot
[2] = target: T2, HA-tagged methylcrotonoyl-CoA carboxylase 1 (MCCC1) (human); assay: co-IP; HEK293T cells co-transfected with HA- and FLAG-tagged expression vectors for 48 h; whole-cell lysate (0.01% EDTA, 0.1% Triton X-100); precipitation with anti-HA or anti-FLAG antibody on protein G PLUS-Agarose; immunoblot
[3] = target: FLAG-tagged mitochondrial antiviral signaling protein (MAVS) (UniProt Q7Z434); assay: as above

Molecule	binding [2]	also measured
Endogenous mitochondrial antiviral signaling protein (MAVS) (from UniProt Q7Z434 1-540)		binding [1]: binds
FLAG-tagged NEMO (IKKγ) (from UniProt Q9Y6K9 1-419)	no binding	
FLAG-tagged mitochondrial antiviral signaling protein (MAVS) (from UniProt Q7Z434 1-540)	binds	
HA-tagged methylcrotonoyl-CoA carboxylase 1 (MCCC1) (protein, UniProt Q96RQ3 42-725) TTATGRNITKVLIANRGEIACRVMRTAKKLGVQTVAVYSEADRNSMHVDMADEAYSIGPAPSQQSYLSMEKIIQVAKTSAAQAIHPGCGFLSENMEFAELCKQEGIIFIGPPPSAIRDMGIKSTSKSIMAAAGVPVVEGYHGEDQSDQCLKEHARRIGYPVMIKAVRGGGGKGMRIVRSEQEFQEQLESARREAKKSFNDDAMLIEKFVDTPRHVEVQVFGDHHGNAVYLFERDCSVQRRHQKIIEEAPAPGIKSEVRKKLGEAAVRAAKAVNYVGAGTVEFIMDSKHNFCFMEMNTRLQVEHPVTEMITGTDLVEWQLRIAAGEKIPLSQEEITLQGHAFEARIYAEDPSNNFMPVAGPLVHLSTPRADPSTRIETGVRQGDEVSVHYDPMIAKLVVWAADRQAALTKLRYSLRQYNIVGLHTNIDFLLNLSGHPEFEAGNVHTDFIPQHHKQLLLSRKAAAKESLCQAALGLILKEKAMTDTFTLQAHDQFSPFSSSSGRRLNISYTRNMTLKDGKNNVAIAVTYNHDGSYSMQIEDKTFQVLGNLYSEGDCTYLKCSVNGVASKAKLIILENTIYLFSKEGSIEIDIPVPKYLSSVSSQETQGGPLAPMTGTIEKVFVKAGDKVKAGDSLMVMIAMKMEHTIKSPKDGTVKKVFYREGAQANRHTPLVEFEEEESDKRESE		binding [3]: binds
FLAG-tagged TRADD (tumor necrosis factor receptor type 1-associated death domain protein) (protein, UniProt Q15628 1-312) MAAGQNGHEEWVGSAYLFVESSLDKVVLSDAYAHPQQKVAVYRALQAALAESGGSPDVLQMLKIHRSDPQLIVQLRFCGRQPCGRFLRAYREGALRAALQRSLAAALAQHSVPLQLELRAGAERLDALLADEERCLSCILAQQPDRLRDEELAELEDALRNLKCGSGARGGDGEVASAPLQPPVPSLSEVKPPPPPPPAQTFLFQGQPVVNRPLSLKDQQTFARSVGLKWRKVGRSLQRGCRALRDPALDSLAYEYEREGLYEQAFQLLRRFVQAEGRRATLQRLVEALEENELTSLAEDLLGLTDPNGGLA	binds	
